Among all 350,000 compounds or so, about 6,000 (1.7%) were called active. Inconclusive results, whose numbers are uncertain, are shown with a selection of clear calls. Rule as the data show it: active = CPE inhibition above about 20% (passing the limit was not always enough); inconclusive = no clear call, values can overlap the other calls; tested in BHK-21 cells.
assay: protection of cells from dengue 2 killing – plate reader, single concentration, primary screen (AID 651640); details: DENV2-infected cells, cytopathic effect rescue, at 9.99 µM, active compounds read high;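 also: 0% = median of neutral control wells and 100% = median of positive control wells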

Compound | CPE inhibition
C[C@@H]1CN([C@@H](C)CO)C(=O)c2cc(C#C[C@@H](C)O)cnc2O[C@H]1CN(C)C(=O)Cc1ccncc1 | inactive: -1.7%
CCC1Oc2ccccc2N(CC(=O)NCCCN2CCCC2)C1=O (stereo not drawn) | inconclusive: 28.1%
CC(C)(O)C(O)COc1c2ccoc2cc2oc(=O)ccc12 (stereo not drawn) | inconclusive: 21.2%
Cn1cnnc1SCC(=O)Nc1ccc(Oc2ccccc2)cc1 | inconclusive: 54.2%
O=C(NCC(=O)N1CCOCC1)OCc1ccccc1 | inconclusive: 42.1%
C=CCC[C@H](CCCCC)OC(=O)/C=C/[C@H](O)[C@@H](O)C[C@H](O)CC=C | inconclusive: 28%
C[C@@H]1CN([C@@H](C)CO)C(=O)c2cc(C#CCN(C)C)cnc2O[C@@H]1CN(C)C(=O)NC1CCCCC1 | inactive: 19.4%
C[C@H](CO)N1C[C@H](C)[C@H](CN(C)C(=O)c2cccc(F)c2)Oc2cc(-c3cccc(F)c3)ccc2S1(=O)=O | inconclusive: 33.6%
C[C@H]1CN([C@@H](C)CO)C(=O)CCCn2nncc2CO[C@H]1CN(C)S(=O)(=O)c1cccc(C#N)c1 | inconclusive: 51.4%
COc1ccc(OC2CCN(S(=O)(=O)c3ccc(F)cc3)CC2)cc1 | inconclusive: 35.3%
CC(C)C[C@H](NC(=O)[C@@H]1Cc2c([nH]c3ccccc23)C2c3ccccc3C(=O)N21)C(=O)N1CCC[C@@H]1C(=O)O (stereo partly drawn) | inconclusive: 30.9%
Cc1ccn2c(Cc3ccccc3)c(-c3ccc(F)cc3)nc2c1 | inconclusive: 29.4%
C[C@H]1CCCCO[C@@H](CN(C)Cc2ccncc2)[C@@H](C)CN([C@@H](C)CO)C(=O)c2cc(NC(=O)Nc3cccc4ccccc34)ccc2O1 | inconclusive: 50.2%
COC(=O)[C@]12C[C@H](CC(=O)NCc3cccc(C(F)(F)F)c3)C(=O)N(CCC3=CCCCC3)C1=C[C@H](C(C)(C)C)O[C@@H]2C | inconclusive: 24%
C[C@@H]1CN([C@@H](C)CO)C(=O)c2cc(NC(=O)Cc3ccccc3)ccc2O[C@@H](C)CCCCO[C@@H]1CN(C)C(=O)Nc1ccc2c(c1)OCO2 | inactive: -5.92%
CCN1CCN(Cc2ccc(NC(=O)c3cc(NC(=O)c4cnn(-c5ccccc5)c4N)cc(OC)c3)cc2C(F)(F)F)CC1 | active: 81.6%
C[C@@H]1CN([C@@H](C)CO)C(=O)Cc2cc(NC(=O)CCCCCC(=O)Nc3ccccc3N)ccc2O[C@@H]1CN(C)C(=O)Nc1ccc(F)cc1 | inconclusive: 25.2%
O=C(Nc1ccc2c(c1)[C@@H]1C[C@H](CC(=O)N3CCc4ccccc4C3)O[C@H](CO)[C@@H]1O2)C1CCC1 | inconclusive: 37.3%

2 compounds picked at random from those above, as already listed:
Compound | CPE inhibition
C[C@@H]1CN([C@@H](C)CO)C(=O)Cc2cc(NC(=O)CCCCCC(=O)Nc3ccccc3N)ccc2O[C@@H]1CN(C)C(=O)Nc1ccc(F)cc1 | inconclusive: 25.2%
C[C@@H]1CN([C@@H](C)CO)C(=O)c2cc(C#C[C@@H](C)O)cnc2O[C@H]1CN(C)C(=O)Cc1ccncc1 | inactive: -1.7%

From PubChem BioAssay AID651640 (Broad Institute, 2012)
